These are yes or no findings as the source states them, for the method shown. Some results given as binding are weak or reduced against the parent protein; the word gives no strength.

The chains behind the UniProt entries cited, without tags or fusion partners. Where a name states a change or a piece, a line headed by the entry shows the natural chain unless it says otherwise.
UniProt G3V9H8: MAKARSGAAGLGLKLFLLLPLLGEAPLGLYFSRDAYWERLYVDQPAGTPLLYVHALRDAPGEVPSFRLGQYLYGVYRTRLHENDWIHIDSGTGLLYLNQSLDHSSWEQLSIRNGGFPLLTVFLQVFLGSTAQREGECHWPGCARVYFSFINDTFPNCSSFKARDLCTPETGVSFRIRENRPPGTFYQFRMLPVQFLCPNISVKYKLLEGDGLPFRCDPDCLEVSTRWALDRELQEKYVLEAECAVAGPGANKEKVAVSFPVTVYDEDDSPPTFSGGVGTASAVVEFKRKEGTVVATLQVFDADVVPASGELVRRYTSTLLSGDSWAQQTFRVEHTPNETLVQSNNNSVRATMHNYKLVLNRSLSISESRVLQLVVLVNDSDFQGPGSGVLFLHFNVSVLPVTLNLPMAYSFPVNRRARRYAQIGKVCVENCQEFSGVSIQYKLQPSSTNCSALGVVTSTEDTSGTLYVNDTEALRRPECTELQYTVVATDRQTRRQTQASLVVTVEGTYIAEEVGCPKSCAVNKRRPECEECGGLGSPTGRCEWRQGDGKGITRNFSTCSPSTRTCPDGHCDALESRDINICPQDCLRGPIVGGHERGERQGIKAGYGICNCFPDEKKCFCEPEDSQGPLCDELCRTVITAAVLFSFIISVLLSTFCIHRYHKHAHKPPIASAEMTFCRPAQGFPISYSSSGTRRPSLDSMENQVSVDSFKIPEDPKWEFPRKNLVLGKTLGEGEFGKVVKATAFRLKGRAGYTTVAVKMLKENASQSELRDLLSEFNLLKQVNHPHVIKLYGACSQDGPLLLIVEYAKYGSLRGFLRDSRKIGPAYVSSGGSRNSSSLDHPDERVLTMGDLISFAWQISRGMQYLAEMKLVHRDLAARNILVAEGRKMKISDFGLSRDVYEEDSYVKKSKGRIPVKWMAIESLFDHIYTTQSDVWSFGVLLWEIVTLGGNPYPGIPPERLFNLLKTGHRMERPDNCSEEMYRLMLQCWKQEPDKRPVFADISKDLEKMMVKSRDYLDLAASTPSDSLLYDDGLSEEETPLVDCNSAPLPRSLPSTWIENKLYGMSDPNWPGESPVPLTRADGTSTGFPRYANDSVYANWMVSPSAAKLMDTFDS

For experiment [1], the target named is T1, human RetL2 expressed on 293/EBNA cells from the insert of clone DSW240 (human) (UniProt O00451).
T1 sequence: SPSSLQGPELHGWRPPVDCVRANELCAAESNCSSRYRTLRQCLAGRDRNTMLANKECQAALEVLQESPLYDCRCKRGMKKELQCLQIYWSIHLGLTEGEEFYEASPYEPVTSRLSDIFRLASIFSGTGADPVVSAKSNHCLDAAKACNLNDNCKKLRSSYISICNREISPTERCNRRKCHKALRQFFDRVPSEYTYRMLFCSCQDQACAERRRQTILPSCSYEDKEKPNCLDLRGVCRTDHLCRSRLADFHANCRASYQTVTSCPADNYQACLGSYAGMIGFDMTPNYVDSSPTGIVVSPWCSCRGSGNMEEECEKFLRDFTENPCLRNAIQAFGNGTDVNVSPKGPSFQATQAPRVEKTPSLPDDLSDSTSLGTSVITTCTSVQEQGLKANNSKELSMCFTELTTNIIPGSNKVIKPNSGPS
Nature of the experiment: staining of transfected 293/EBNA cells with 20 ug/ml rat Ret/IgG and AP-coupled anti-human IgG.

Experiment [2] deals with T1, human RetL2 expressed on 293/EBNA cells from the insert of clone DSW240 (human). The experiment is described as follows: staining of transfected 293/EBNA cells with rat Ret/IgG.

“rat Ret/IgG fusion protein (from UniProt G3V9H8 24-637) (Fc fusion)”: the binding result in experiment [1] and in experiment [2] was “binds” throughout.

The values are drawn from EP1757617A1.
